Test results reported in the supplement of paper PMC10849652.
The other results are listed elsewhere or left out.

Amino acid sequences for entries named in this document (tags omitted). A change or cut given only in a name is not applied to a line headed by its entry.
UniProt Q96AX1: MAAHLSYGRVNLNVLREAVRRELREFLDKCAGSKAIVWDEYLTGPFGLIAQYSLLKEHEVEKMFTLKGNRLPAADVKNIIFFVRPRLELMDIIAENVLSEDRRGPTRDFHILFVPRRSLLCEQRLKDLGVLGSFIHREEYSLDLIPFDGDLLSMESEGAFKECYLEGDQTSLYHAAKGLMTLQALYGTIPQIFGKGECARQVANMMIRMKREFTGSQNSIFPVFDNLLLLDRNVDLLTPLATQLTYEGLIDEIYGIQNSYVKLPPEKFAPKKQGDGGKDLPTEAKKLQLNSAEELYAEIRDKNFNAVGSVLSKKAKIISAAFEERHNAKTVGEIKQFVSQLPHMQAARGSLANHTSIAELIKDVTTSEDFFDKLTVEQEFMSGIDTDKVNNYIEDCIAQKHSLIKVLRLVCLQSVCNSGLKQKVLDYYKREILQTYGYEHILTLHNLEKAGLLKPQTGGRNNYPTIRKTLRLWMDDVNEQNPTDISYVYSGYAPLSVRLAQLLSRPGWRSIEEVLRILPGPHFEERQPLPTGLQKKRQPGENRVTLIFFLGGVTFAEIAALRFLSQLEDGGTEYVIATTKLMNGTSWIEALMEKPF
UniProt Q5T750: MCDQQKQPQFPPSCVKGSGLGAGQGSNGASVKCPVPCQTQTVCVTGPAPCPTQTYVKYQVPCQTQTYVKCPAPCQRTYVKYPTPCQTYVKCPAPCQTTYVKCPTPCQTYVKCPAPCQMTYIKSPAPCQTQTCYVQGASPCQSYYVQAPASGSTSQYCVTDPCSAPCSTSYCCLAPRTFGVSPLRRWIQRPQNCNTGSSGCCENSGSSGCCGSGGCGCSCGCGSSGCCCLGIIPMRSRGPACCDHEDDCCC
UniProt Q96P53: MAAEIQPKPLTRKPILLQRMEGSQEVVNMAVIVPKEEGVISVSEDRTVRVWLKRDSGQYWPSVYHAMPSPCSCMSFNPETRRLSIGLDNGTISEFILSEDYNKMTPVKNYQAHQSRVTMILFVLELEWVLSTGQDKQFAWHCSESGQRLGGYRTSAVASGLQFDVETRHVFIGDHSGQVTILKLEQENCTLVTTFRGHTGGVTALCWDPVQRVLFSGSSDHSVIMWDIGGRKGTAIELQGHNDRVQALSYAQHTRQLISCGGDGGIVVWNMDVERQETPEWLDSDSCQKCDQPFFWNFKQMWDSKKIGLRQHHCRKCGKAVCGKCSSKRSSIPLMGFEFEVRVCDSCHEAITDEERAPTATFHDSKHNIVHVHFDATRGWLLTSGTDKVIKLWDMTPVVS
UniProt Q7Z5U6: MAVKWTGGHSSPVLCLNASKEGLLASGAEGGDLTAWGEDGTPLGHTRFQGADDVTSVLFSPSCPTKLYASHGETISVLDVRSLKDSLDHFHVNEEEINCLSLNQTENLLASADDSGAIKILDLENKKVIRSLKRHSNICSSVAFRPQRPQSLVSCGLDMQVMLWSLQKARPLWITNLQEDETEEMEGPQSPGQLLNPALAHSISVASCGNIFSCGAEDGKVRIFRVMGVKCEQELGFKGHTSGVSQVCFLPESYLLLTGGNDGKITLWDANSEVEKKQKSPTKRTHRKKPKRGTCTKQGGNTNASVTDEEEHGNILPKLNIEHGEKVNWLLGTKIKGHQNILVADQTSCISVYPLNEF
UniProt Q96HA8: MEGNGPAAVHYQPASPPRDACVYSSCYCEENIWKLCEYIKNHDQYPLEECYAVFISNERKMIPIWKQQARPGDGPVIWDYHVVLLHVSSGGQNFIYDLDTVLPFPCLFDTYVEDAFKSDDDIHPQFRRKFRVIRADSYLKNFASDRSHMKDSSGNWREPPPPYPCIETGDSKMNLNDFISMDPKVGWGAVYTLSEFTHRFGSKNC
UniProt Q9H967: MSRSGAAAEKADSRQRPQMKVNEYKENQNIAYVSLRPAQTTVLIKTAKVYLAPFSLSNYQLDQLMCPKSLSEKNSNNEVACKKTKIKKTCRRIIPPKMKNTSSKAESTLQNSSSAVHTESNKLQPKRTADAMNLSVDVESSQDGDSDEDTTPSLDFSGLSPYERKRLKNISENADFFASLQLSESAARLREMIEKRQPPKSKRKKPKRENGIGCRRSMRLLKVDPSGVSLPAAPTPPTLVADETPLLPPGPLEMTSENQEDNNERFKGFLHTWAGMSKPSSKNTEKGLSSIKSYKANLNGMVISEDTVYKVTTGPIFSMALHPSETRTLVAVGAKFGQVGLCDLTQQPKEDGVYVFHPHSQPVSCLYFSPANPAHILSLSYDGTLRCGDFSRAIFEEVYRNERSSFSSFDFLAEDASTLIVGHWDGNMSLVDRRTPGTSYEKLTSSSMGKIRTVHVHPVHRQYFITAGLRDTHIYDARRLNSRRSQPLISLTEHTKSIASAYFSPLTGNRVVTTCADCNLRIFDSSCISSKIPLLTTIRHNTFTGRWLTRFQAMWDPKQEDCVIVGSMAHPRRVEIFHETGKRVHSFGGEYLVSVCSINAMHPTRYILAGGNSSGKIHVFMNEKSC
UniProt Q9BTA9: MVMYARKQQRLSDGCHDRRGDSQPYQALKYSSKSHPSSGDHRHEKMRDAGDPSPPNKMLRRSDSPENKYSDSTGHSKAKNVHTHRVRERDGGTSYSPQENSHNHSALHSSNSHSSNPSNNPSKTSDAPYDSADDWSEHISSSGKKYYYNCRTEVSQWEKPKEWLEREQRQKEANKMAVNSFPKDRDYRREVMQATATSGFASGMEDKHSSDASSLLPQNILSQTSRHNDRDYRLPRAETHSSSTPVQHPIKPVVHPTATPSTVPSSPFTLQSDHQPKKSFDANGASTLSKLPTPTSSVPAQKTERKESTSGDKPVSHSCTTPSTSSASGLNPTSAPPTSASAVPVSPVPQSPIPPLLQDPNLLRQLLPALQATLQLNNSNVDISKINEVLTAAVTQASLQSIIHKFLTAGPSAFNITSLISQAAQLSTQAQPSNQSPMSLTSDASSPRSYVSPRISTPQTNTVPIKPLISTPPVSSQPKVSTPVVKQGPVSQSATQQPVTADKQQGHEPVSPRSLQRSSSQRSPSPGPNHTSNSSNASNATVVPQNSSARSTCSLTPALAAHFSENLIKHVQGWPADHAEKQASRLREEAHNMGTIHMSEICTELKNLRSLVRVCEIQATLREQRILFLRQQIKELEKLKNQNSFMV
UniProt Q9H7M9, whole entry, looked up: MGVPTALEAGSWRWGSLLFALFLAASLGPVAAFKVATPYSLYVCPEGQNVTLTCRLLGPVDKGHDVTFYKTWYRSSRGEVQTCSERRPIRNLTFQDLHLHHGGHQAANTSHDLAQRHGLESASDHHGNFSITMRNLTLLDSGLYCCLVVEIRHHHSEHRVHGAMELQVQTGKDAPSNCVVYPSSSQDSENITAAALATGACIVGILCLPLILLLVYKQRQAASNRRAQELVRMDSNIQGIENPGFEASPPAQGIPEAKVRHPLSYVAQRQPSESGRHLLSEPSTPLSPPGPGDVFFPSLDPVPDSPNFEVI
UniProt Q15906, whole entry, looked up: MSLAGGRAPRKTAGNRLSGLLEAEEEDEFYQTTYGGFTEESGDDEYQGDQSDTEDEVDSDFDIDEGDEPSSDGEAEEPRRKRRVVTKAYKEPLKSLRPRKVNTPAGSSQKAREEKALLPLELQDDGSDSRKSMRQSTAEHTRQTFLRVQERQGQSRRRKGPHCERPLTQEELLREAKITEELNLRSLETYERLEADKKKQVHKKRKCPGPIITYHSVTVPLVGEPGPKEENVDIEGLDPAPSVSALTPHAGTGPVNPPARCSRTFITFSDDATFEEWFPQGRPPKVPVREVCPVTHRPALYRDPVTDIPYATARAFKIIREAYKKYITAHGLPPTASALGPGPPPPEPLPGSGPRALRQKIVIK
UniProt Q502W6: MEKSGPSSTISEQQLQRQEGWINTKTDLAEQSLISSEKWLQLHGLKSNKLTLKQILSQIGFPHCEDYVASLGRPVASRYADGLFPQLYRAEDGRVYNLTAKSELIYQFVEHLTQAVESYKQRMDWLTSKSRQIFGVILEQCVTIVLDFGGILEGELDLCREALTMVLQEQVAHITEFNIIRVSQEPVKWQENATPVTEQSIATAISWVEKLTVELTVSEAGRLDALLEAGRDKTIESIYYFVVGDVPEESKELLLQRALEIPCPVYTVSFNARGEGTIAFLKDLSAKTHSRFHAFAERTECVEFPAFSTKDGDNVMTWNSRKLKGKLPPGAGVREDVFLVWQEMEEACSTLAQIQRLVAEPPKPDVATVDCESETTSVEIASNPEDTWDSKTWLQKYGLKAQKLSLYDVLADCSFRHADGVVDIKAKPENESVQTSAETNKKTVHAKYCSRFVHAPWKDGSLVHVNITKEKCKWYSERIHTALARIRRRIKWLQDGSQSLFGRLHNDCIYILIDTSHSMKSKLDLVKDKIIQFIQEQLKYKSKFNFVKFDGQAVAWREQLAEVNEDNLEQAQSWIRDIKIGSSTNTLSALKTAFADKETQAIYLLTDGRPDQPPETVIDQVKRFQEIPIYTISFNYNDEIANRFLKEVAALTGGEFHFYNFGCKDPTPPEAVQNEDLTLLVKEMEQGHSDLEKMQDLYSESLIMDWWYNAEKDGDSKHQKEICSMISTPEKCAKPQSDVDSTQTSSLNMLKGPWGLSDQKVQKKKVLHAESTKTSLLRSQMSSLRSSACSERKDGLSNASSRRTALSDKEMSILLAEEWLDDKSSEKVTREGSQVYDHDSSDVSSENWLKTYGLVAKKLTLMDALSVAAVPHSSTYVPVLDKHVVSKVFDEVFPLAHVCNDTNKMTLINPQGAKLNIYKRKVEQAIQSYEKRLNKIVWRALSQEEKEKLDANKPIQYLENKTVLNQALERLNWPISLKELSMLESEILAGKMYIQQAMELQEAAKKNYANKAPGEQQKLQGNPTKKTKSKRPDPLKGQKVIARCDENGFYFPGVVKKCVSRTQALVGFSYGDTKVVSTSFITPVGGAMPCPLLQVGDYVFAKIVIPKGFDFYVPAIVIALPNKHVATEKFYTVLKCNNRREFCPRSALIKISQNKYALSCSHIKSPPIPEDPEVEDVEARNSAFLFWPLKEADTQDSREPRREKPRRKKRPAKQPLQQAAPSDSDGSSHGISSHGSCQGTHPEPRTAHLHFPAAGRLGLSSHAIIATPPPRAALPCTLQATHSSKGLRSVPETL
UniProt P42768: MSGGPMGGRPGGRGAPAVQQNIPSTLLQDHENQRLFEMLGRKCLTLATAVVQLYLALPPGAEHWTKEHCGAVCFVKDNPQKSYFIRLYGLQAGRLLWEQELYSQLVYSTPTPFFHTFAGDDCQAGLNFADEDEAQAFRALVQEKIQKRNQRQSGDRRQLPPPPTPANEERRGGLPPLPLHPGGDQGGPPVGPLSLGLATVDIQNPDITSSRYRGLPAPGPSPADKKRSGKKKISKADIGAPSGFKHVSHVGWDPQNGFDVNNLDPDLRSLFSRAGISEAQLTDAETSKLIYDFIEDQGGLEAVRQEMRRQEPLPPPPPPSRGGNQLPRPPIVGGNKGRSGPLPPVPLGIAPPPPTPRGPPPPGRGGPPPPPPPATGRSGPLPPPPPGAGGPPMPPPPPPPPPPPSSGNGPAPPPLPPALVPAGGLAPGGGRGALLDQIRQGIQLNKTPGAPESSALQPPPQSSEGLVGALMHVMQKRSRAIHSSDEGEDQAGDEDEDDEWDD
UniProt Q9HD64: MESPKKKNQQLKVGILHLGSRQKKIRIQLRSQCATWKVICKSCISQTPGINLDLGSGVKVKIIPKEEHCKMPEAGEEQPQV
UniProt Q9H977: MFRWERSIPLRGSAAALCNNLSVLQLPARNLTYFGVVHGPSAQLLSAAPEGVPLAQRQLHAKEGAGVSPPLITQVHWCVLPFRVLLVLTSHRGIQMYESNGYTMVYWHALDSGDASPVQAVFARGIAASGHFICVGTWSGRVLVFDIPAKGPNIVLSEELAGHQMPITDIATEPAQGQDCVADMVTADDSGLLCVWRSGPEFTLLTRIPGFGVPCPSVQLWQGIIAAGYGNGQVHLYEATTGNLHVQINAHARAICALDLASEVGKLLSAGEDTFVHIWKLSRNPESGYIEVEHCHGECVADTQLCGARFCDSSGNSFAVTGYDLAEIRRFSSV
UniProt Q9Y6I7: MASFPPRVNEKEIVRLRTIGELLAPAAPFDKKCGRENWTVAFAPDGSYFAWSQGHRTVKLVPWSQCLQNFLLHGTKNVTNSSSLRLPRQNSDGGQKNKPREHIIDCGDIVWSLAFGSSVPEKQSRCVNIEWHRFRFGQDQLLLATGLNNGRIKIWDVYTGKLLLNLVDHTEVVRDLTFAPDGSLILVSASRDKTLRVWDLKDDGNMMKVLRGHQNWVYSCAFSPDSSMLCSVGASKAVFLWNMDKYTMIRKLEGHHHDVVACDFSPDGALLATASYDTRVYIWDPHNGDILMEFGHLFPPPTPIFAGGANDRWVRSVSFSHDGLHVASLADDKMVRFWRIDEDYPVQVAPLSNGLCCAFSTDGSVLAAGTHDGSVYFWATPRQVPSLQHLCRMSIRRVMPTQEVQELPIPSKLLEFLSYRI

Assays:
Test in all cases: log2 fold change, soluble protein after heating vs DMSO (PISA); higher = thermal stabilisation; K562 lysate, 10 uM; active = over 0.2 and 3.5 SD of the protein, either way, in both replicates (recomputed)
[1] = compound: C=CC(=O)N1CCC[C@@H](n2nc(-c3ccc(Oc4ccccc4)cc3)c3c(N)ncnc32)C1 [ibrutinib]
Outline: (§1)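 Log-two fold change in thermal stability relative to solvent controls is reported from duplicates. For each sample, crude K562 extract from dounce-homogenised pellets in PBS pH 7.4 with 1 mM MgCl2, at 1 mg/mL protein, was treated with 10 μM compound for 30 min. Aliquots heated for 3 min across 48°C-58°C were pooled, brought to 0.5% NP-40 at 4°C and cleared at 21,000xg for 90 min. The supernatant was quantified by TMTpro 16plex LC-MS/MS with channel sums equalised.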

[2] = compound: CC(=O)c1cnc2ccc(-c3cc(Cl)c(O)c(Cl)c3)nc2c1N[C@H]1CC[C@H](CN(C)C)CC1
Outline: as §1

[3] = compound: CC(C)(C)Cn1c(N)nc2ccc(-c3[nH]c(C(C)(C)C)nc3-c3ccc(F)cc3)nc21 [ralimetinib]
Outline: as §1

[4] = compound: CC(C)(O)CC(=O)NCCn1ccc2ncnc(Nc3ccc(Oc4cccc(C(F)(F)F)c4)c(Cl)c3)c21
Outline: as §1

[5] = compound: CC(C)C1=C2N=C(C=C(N2N=C1)NCC3=CC=CC=C3)NCCCCCCN
Outline: as §1

[6] = compound: CC1=C(C(CC(=O)N1)C2=CC=C(C=C2)C(F)(F)F)C(=O)NC3=C(C=C4C(=C3)C=NN4)F
Outline: as §1

[7] = compound: CC1=C(C2=C(C=C1)C(=O)C3=CC=CC=C3N2CCCN)C
Outline: as §1

[8] = compound: CC1=C(C=C(C=C1)NC(=O)C2=CC(=CC=C2)C(C)(C)C#N)NC3=CC4=C(C=C3)N=CN(C4=O)C
Outline: as §1

[9] = compound: CC1=C(C=C(C=C1)NC(=O)C2=CC(=CC=C2)N(C)C)NC(=O)C3=CC=C(C=C3)O
Outline: as §1

[10] = compound: CC1=CC=C(C=C1)SC2=C3C=C(SC3=CN=C2)C(=O)N
Outline: as §1

[11] = compound: CCCS(=O)(=O)Nc1ccc(F)c(C(=O)c2c[nH]c3ncc(-c4ccc(Cl)cc4)cc23)c1F [vemurafenib]
Outline: as §1

[12] = compound: CCCS(=O)(=O)Nc1ccc(F)c(C(=O)c2c[nH]c3ncc(Cl)cc23)c1F
Outline: as §1

[13] = compound: CCN(CCCOc1ccc2c(Nc3cc(CC(=O)Nc4cccc(F)c4)[nH]n3)ncnc2c1)CCOP(=O)(O)O [barasertib]
Outline: as §1

[14] = compound: CC[C@@H]1C(=O)N(C)c2cnc(Nc3ccc(C(=O)NC4CCN(C)CC4)cc3OC)nc2N1C1CCCC1
Outline: as §1

[15] = compound: CC[C@@H]1C(=O)N(C)c2cnc(Nc3ccc(C(=O)N[C@H]4CC[C@H](N5CCN(CC6CC6)CC5)CC4)cc3OC)nc2N1C(C)C [volasertib]
Outline: as §1

[16] = compound: CCn1c(C(=O)N(C2CC2)C2CC2)cc2c3c(ncn3C)c(Nc3cc(C)n(C)n3)nc21
Outline: as §1

[17] = compound: CCn1cc(-c2ccnc3[nH]c(-c4cccc(CN(C)C)c4)cc23)c(-c2ccc(NC(=O)N(C)C)cc2)n1
Outline: as §1

[18] = compound: CN1CCC(CNc2ccc3ncc(-c4cccc(OC(F)(F)F)c4)n3n2)CC1
Outline: as §1

[19] = compound: CN1CCN(CCOc2cc(OC3CCOCC3)c3c(Nc4c(Cl)ccc5c4OCO5)ncnc3c2)CC1 [saracatinib]
Outline: as §1

[20] = compound: CN1CCN(c2nc(C3=C(c4c[nH]c5ccccc45)C(=O)NC3=O)c3ccccc3n2)CC1 [sotrastaurin]
Outline: as §1

Measured: log2 fold change

VPS33A (UniProt Q96AX1)
inactive: [1] 0.024 | [2] -0.01 | [3] 0.039 | [4] 0.005 | [5] -0.003 | [6] 0.008 | [7] 0.013 | [8] 0.013 | [9] 0.043 | [10] -0.032 | [11] -0.012 | [12] 0.022 | [13] 0.037 | [14] 0.018 | [15] -0.042 | [16] 0.018 | [17] -0.041 | [18] -0.033 | [19] -0.001 | [20] 0.03

XP32 (UniProt Q5T750)
inactive: [8] 0.097 | [17] 0.145 | [18] -0.224 | [20] 0

WDFY2 (UniProt Q96P53)
inactive: [5] 0.005 | [7] -0.104 | [19] 0.013

WDR53 (UniProt Q7Z5U6)
inactive: [1] -0.027 | [3] 0.027 | [4] -0.033 | [5] -0.035 | [6] -0.039 | [7] 0.008 | [8] 0.01 | [9] 0.002 | [11] 0.127 | [13] -0.007 | [14] 0.013 | [16] 0.012 | [17] 0.076 | [18] -0.057 | [19] -0.012 | [20] 0.119

WDYHV1 (UniProt Q96HA8)
inactive: [2] 0.038 | [3] -0.027 | [4] 0.197 | [5] -0.144 | [6] 0.068 | [7] 0.017 | [8] 0.013 | [9] 0.091 | [10] 0.088 | [11] 0.065 | [12] -0.065 | [14] -0.023 | [15] -0.045 | [16] 0.143 | [19] -0.033 | [20] 0.101

WDR76 (UniProt Q9H967)
inactive: [3] 0.084 | [4] 0.061 | [6] 0.058 | [7] -0.052 | [8] 0.028 | [9] 0.05 | [14] -0.035 | [16] 0.14 | [19] 0.014 | [20] -0.064

WAC isoform 5 (UniProt Q9BTA9)
inactive: [3] 0.059 | [4] -0.145 | [5] -0.038 | [7] 0.127 | [9] 0.096 | [16] 0.047 | [19] -0.078

VLDLR (UniProt P98155)
inactive: [1] -0.041 | [3] 0.079 | [4] -0.083 | [5] -0.027 | [8] 0.131 | [9] 0.012 | [13] -0.036 | [16] 0.073 | [20] -0.107

WDR34 (UniProt Q96EX3)
inactive: [1] 0.011 | [3] 0.155 | [4] -0.051 | [5] -0.049 | [6] -0.064 | [7] -0.057 | [8] -0.06 | [9] 0.017 | [11] 0.131 | [13] 0.059 | [14] -0.163 | [16] 0.028 | [17] -0.019 | [18] 0.089 | [19] 0.003 | [20] -0.101

VSIR (UniProt Q9H7M9)
inactive: [1] 0.058 | [2] 0.036 | [3] -0.032 | [4] -0.033 | [5] 0.025 | [7] -0.017 | [8] -0.158 | [9] 0.021 | [10] -0.002 | [11] 0.032 | [12] -0.021 | [13] -0.035 | [14] 0.129 | [15] 0.061 | [16] -0.01 | [17] -0.011 | [18] 0.013 | [19] 0.053 | [20] 0.053

VPS72 (UniProt Q15906)
inactive: [2] 0.016 | [3] 0.046 | [4] -0.06 | [5] -0.028 | [6] -0.098 | [7] 0.005 | [8] 0 | [9] -0.01 | [10] -0.038 | [11] 0.054 | [12] -0.139 | [14] -0.009 | [15] 0.162 | [16] 0.021 | [17] 0.056 | [18] 0.078 | [19] 0.04 | [20] 0.024

VWA3B isoform 6 (UniProt Q502W6)
inactive: [1] 0.162 | [2] -0.007 | [3] 0.083 | [4] 0.009 | [5] 0.033 | [6] -0.033 | [7] 0.037 | [8] -0.078 | [9] 0.009 | [10] -0.018 | [12] -0.006 | [13] 0.12 | [14] -0.132 | [15] -0.005 | [16] 0.024 | [17] -0.189 | [18] 0.218 | [19] -0.015 | [20] 0.02

WAS (UniProt P42768)
inactive: [1] -0.06 | [5] -0.01 | [6] 0.071 | [7] 0.143 | [13] 0.046 | [14] 0.043 | [17] 0.007 | [18] 0.019 | [19] -0.136

WEE1 (UniProt P30291)
inactive: [1] -0.028 | [2] 0.139 | [3] -0.017 | [4] -0.062 | [5] -0.031 | [6] -0.032 | [7] -0.012 | [8] 0.023 | [9] -0.105 | [10] -0.038 | [11] 0.029 | [12] 0.056 | [13] 0.015 | [14] -0.25 | [15] -0.032 | [16] -0.077 | [19] -0.016 | [20] -0.1

WDR46, A0A0G2JJL1
inactive: [1] -0.052 | [2] 0.02 | [3] 0.102 | [4] -0.096 | [6] 0.026 | [7] -0.031 | [9] 0.028 | [10] 0.056 | [11] -0.144 | [12] 0.031 | [13] -0.013 | [15] 0.074 | [16] -0.011 | [17] -0.012 | [18] 0.031 | [19] 0.106

WDR83 (UniProt Q9BRX9)
inactive: [1] -0.098 | [2] 0.067 | [3] -0.006 | [4] -0.004 | [6] -0.333 | [7] 0.019 | [9] 0.131 | [10] -0.01 | [11] -0.126 | [12] 0.015 | [13] 0.104 | [15] 0.176 | [16] 0.107 | [19] 0.042

XAGE1A (UniProt Q9HD64)
inactive: [1] -0.079 | [6] 0.121 | [11] -0.007 | [13] -0.057 | [14] -0.159

WIPI2 isoform 6 (UniProt Q9Y4P8)
inactive: [1] -0.021 | [13] 0.04 | [17] -0.24 | [18] -0.016

WDR54 isoform 4 (UniProt Q9H977)
inactive: [1] -0.043 | [7] -0.001 | [8] -0.023 | [11] 0.018 | [13] -0.094 | [14] 0.168 | [17] 0.104 | [18] 0.197 | [19] -0.11 | [20] 0.03

WSB1 (UniProt Q9Y6I7)
inactive: [3] 0.08 | [4] -0.006 | [7] -0.037 | [9] -0.028 | [16] 0.105 | [17] 0.078 | [18] 0.08 | [19] -0.159

Two entries drawn at random from those above:
WDR54 isoform 4 (UniProt Q9H977)
inactive: [1] -0.043 | [7] -0.001 | [8] -0.023 | [11] 0.018 | [13] -0.094 | [14] 0.168 | [17] 0.104 | [18] 0.197 | [19] -0.11 | [20] 0.03

WSB1 (UniProt Q9Y6I7)
inactive: [3] 0.08 | [4] -0.006 | [7] -0.037 | [9] -0.028 | [16] 0.105 | [17] 0.078 | [18] 0.08 | [19] -0.159
